Source: patent US6495529B1 (Warner-Lambert Company, priority 1998, dated 2002)

Tested on: α2-receptors
Assay: ALPHA-2 binding, p-125Iodoclonidine, canine brain (frontal cortex) membranes
Design: species or system dog
Details: radioligand
Experimental: Membranes of mongrel dogs were harvested from the canine frontal cortex and prepared as described for lung except that the final membrane protein concentration was adjusted to 0.5 mg/ml.
Nonspecific binding was determined in separate incubations in the presence of 10 μM phentolamine. The final concentration of p-iodoclonidine was 44-45 pM in competition studies and between 50 pM and 10 nM in saturation experiments. Bound and free […] were separated and the bound quantitated as described above for the ICYP assays.
All data were analyzed with the aid of microcomputer nonlinear curve fitting programs (PRISM 2.0, Graphpad Software, San Diego Calif.).
The receptors resident in each of the three membrane preparations were evaluated by standard saturation analysis following the addition of increasing concentrations of the appropriate radioligand.
The radio ligand added for subsequent α2-displacement assays was adjusted to evaluate only the high affinity receptor. Contributions from p-iodoclonidine binding to imidazoline receptors in the α2-displacement assay were evaluated with epinephrine.

SMILES: Clc1cc(I)cc(Cl)c1NC1=NCCN1 [p-iodoclonidine]
- Bmax1 (high affinity) (Saturation Analysis): 57 femtomoles per mg protein
- Bmax2 (low affinity) (Saturation Analysis): 73 femtomoles per mg protein
- Bmax1 (high affinity) (Scatchard Analysis): 67 femtomoles per mg protein
- Bmax2 (low affinity) (Scatchard Analysis): 120 femtomoles per mg protein
